The source of these data is patent publication US20260199282A1, “METHODS AND COMPOSITIONS FOR IMPROVING DRIVING PERFORMANCE” (priority 2022, published 2026).

The amount applied is not stated for every result.

The data set has as its system subjects with EDS due to OSA. The data set can be described thus: Actigraphy and sleep diary, OSA study. The class given is in vivo, human. Conditions: end of treatment period.

Take `NC(=O)OC[C@H](N)Cc1ccccc1` [Solriamfetol, (R)-2-amino-3-phenylpropyl carbamate]: the “total sleep time, reduction from baseline (mean change)” value worked out at 16.29 min. For the same compound, where the note is “mITT”, the “Sleep Onset Latency for 24-hours, change from baseline, mean” value is -6.44 min; the “Sleep Onset Latency for 24-hours, change from baseline, mean difference (JZP-110 − Placebo)” value was 0.50 min; the “Sleep Onset Latency for 24-hours, change from baseline, median” value was -4.75 min; the “Sleep Onset Latency for 24-hours, change from baseline, median difference (JZP-110 − Placebo)” value was −1.50 min. Also, where the note is “mITT”, the “Sleep Period (Time in Bed), change from baseline, mean” value was -13.82 min; the “Sleep Period (Time in Bed), change from baseline, mean difference (JZP-110 − Placebo)” value is −29.80 min; the “Sleep Period (Time in Bed), change from baseline, median” value is -23.37 min; the “Sleep Period (Time in Bed), change from baseline, median difference (JZP-110 − Placebo)” value is given as −28.00 min. Where the note is “mITT”, the “Total Sleep Time, change from baseline, mean” value was -16.29 min; the “Total Sleep Time, change from baseline, mean difference (JZP-110 − Placebo)” value was −37.92 min; the “Total Sleep Time, change from baseline, median” value is -19.76 min; the “Total Sleep Time, change from baseline, median difference (JZP-110 − Placebo)” value is −34.31 min. Where the note is “mITT”, the “WASO, change from baseline, mean” value stood at 1.45 min; the “WASO, change from baseline, mean difference (JZP-110 − Placebo)” value is on record as 3.91 min; the “WASO, change from baseline, median” value is -0.69 min; the “WASO, change from baseline, median difference (JZP-110 − Placebo)” value worked out at 1.07 min.
